Values of other authors, collected in publication PMC7717712, “The effects of cardiac drugs on human erythrocyte carbonic anhydrase I and II isozymes” (Journal of Enzyme Inhibition and Medicinal Chemistry, 2020).

Key:
protein kinase C = details: read-out: IC50, protein kinase C; cited from earlier work
ATPase = details: read-out: IC50, ATPase activity; cited from earlier work

SMILES: CC(C)NCC(O)COc1cccc2ccccc12 (centres unmarked) [Propranolol]
- IC50 (protein kinase C): ~150 µM
- IC50 (ATPase): 4400 µM
